From the supplement of paper PMC6411743
± gives the standard deviation of the averaged measurements. Only a part is listed here, and it is no random draw.

Protein sequences, listed by entry. Tags and fused reporters are not part of them. Lines headed by an entry give the natural chain unless they say otherwise; changes in a name come on top.
UniProt Q53FT3: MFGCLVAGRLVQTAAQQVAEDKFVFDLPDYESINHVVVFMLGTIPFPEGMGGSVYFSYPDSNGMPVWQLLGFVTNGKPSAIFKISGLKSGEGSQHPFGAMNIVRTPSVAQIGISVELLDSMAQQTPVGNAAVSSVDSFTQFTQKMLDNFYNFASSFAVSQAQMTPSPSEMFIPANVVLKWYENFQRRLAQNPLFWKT
UniProt Q9H7P6: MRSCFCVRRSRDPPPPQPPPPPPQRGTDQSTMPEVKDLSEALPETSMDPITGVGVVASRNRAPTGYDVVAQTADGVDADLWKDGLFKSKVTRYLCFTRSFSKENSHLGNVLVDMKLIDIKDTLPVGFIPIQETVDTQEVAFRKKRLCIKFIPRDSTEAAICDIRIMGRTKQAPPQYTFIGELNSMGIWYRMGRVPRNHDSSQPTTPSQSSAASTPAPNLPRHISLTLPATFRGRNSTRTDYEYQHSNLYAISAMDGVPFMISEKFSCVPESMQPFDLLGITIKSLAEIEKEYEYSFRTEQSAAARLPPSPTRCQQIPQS
UniProt Q6NWY9: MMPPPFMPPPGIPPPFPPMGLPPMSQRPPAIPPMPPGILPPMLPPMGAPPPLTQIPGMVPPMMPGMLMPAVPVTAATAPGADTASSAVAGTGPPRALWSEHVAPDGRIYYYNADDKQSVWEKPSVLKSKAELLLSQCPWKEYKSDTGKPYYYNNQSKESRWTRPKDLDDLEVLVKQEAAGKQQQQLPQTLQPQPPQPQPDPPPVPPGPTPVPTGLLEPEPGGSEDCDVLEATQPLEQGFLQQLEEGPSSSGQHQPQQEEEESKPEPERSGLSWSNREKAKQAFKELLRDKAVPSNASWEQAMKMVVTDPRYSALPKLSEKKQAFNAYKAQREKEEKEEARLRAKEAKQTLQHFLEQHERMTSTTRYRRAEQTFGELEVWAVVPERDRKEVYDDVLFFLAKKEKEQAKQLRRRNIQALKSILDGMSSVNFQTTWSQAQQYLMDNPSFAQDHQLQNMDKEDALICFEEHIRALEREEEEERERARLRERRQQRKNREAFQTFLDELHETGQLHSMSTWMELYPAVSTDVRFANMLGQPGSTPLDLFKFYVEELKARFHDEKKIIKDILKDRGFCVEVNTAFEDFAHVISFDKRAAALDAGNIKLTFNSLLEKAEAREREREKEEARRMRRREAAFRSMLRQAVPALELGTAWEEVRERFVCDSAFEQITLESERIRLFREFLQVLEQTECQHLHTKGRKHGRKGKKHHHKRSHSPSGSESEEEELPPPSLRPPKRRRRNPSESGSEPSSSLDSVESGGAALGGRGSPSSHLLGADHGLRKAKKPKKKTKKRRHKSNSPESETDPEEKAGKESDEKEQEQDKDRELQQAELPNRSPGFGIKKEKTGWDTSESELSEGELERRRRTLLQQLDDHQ
UniProt Q16342: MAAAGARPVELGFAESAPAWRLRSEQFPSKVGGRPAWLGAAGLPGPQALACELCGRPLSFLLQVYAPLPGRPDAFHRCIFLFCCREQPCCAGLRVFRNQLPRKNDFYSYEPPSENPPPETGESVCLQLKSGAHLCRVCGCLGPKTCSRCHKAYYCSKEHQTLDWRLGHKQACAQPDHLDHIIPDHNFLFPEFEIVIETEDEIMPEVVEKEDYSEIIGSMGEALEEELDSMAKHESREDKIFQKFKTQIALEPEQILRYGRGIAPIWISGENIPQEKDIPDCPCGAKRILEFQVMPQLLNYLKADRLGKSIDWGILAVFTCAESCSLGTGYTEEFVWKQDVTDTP
UniProt Q9GZT6: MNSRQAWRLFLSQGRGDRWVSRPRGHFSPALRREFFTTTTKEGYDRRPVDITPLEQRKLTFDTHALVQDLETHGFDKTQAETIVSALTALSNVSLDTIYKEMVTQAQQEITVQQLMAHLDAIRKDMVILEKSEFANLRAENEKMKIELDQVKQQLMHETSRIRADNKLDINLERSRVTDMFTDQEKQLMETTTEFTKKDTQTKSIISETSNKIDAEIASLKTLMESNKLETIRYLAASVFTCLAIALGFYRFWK
UniProt Q9Y4P3: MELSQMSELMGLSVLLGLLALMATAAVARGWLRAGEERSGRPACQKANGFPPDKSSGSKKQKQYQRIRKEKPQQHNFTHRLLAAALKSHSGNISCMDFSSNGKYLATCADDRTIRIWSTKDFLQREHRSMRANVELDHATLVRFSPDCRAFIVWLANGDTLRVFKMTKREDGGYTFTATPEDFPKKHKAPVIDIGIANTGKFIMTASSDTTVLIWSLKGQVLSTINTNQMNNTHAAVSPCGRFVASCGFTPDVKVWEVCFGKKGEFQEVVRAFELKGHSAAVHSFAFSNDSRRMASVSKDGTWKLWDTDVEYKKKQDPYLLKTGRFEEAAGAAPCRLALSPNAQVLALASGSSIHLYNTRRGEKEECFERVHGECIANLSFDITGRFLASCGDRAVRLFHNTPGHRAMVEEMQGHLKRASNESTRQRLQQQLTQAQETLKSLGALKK
UniProt Q9Y3C0: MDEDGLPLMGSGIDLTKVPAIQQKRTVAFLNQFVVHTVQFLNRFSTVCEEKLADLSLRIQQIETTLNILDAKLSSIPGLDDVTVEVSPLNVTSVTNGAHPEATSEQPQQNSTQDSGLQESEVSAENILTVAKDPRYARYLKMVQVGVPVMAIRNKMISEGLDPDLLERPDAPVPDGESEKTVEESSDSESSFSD
UniProt Q9HCU9: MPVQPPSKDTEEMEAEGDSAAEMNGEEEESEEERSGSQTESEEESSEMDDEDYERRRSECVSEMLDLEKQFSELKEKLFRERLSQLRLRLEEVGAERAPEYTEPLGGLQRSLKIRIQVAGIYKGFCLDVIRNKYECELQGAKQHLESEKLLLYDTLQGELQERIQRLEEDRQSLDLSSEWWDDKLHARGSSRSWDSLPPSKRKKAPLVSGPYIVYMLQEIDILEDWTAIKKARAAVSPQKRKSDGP
UniProt O75251, whole entry: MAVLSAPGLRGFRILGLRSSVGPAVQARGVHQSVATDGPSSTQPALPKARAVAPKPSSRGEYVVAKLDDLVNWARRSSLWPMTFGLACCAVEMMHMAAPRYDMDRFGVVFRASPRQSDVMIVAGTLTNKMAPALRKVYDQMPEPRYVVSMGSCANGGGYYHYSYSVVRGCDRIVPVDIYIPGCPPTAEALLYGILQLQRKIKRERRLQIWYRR
UniProt Q9C0E2: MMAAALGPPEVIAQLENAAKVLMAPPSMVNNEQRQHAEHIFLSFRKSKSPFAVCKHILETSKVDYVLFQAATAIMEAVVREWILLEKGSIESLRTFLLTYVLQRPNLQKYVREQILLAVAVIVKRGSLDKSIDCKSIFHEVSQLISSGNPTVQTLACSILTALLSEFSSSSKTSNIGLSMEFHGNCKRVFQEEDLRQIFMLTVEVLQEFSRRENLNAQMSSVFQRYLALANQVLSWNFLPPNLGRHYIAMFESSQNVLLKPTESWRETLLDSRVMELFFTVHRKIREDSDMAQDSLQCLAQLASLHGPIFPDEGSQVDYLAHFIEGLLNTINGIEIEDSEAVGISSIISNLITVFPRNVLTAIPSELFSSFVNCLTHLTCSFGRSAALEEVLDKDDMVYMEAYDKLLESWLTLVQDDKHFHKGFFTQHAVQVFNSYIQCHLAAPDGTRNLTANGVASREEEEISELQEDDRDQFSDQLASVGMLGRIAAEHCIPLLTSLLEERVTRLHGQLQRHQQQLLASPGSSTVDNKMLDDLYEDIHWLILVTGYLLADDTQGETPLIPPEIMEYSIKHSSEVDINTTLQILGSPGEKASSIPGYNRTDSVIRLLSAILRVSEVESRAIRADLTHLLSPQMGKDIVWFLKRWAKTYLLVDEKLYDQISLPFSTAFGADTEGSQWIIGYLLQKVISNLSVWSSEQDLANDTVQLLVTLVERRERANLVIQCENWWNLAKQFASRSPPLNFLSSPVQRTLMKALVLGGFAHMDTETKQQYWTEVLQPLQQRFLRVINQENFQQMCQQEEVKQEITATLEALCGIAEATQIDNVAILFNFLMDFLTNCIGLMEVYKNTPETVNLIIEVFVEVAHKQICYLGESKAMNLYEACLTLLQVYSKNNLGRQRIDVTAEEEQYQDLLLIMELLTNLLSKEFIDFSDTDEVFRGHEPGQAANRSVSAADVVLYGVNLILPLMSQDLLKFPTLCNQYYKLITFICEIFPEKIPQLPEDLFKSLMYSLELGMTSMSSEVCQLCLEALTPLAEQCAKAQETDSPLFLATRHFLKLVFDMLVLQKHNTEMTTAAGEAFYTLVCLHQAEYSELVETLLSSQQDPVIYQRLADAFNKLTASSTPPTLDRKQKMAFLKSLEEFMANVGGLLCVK
UniProt P52747: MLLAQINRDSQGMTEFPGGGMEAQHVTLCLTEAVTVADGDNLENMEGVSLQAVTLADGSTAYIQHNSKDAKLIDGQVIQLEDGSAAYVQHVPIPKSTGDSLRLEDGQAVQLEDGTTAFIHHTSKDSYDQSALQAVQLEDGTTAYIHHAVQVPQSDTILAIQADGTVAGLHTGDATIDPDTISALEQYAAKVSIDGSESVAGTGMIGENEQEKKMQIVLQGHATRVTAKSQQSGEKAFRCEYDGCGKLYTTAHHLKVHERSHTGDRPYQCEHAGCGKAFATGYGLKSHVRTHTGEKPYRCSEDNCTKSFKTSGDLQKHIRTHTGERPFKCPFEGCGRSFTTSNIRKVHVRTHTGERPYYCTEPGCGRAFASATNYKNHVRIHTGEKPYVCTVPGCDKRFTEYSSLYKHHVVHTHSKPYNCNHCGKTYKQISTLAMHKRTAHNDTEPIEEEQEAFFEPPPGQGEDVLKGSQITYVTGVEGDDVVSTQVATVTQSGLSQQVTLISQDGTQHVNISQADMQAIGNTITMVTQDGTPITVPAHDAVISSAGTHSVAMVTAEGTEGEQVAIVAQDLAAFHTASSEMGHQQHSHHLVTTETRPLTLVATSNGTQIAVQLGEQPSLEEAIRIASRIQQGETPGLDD
UniProt P57764: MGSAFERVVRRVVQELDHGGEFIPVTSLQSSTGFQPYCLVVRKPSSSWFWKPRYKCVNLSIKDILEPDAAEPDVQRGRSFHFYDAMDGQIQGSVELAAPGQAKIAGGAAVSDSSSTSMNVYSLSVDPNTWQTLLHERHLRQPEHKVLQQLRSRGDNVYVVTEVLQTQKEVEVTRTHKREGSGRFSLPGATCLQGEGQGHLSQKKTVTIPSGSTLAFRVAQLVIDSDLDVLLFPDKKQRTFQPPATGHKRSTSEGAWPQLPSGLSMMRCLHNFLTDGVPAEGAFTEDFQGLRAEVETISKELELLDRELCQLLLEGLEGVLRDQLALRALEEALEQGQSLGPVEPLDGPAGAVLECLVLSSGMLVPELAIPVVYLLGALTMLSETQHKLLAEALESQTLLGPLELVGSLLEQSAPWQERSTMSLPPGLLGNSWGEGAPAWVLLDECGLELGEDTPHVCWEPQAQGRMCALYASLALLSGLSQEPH
UniProt Q07866: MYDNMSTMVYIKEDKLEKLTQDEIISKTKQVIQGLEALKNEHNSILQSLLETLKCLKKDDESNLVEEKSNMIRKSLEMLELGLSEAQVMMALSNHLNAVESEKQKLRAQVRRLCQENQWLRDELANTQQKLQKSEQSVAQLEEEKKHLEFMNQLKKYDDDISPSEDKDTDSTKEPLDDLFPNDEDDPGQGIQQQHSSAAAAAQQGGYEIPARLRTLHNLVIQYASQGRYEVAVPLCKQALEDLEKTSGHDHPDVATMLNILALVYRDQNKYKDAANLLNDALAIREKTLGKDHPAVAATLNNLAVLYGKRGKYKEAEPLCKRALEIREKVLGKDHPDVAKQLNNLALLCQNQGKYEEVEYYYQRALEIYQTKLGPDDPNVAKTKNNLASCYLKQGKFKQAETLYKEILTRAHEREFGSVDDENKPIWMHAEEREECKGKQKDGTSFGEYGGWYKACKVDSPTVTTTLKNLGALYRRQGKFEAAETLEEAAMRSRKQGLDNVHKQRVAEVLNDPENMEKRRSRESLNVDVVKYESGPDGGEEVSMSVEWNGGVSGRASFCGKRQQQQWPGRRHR
UniProt O43572: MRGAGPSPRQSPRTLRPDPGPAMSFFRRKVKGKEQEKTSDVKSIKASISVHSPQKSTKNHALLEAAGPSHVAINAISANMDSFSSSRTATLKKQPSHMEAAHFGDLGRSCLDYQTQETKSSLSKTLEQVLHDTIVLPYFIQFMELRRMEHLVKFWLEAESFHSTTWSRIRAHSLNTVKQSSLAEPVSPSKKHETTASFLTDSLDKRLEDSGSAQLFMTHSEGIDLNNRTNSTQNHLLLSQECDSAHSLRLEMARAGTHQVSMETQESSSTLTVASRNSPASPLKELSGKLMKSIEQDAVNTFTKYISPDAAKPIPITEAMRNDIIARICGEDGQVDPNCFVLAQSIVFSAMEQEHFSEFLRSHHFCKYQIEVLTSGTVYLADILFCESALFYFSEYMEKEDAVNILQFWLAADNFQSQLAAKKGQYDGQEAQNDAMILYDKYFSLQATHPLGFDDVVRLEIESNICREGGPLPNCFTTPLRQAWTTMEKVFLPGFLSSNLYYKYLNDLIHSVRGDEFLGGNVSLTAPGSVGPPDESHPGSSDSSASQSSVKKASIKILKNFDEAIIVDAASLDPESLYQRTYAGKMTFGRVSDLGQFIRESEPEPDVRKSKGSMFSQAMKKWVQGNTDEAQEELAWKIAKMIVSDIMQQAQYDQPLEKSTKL

Compound: Nc1ncnc2c1ncn2[C@@H]1O[C@H](COP(=O)(O)OP(=O)(O)NP(=O)(O)O)[C@@H](O)[C@H]1O [adenylyl imidodiphosphate]
Experiment: NP40-soluble protein abundance relative to vehicle (solubility fold change) (ratio); higher = more soluble protein in presence of AMP-PNP
Method in brief: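 Each value is a fold change relative to the detergent-processed vehicle, calculated per replicate from vsn-normalised intensities. Jurkat crude lysate received eight concentrations (0.1 to 10 mM) for 10 min at room temperature and 3 min at 37 °C, then was solubilised in 0.8% NP40 with benzonase (60 min, 4 °C). The ultracentrifuged supernatant was TMT-labelled and run by LC-MS/MS in three independent experiments.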

Row | Target | NP40-soluble protein abundance (concentration: 1mM) | NP40-soluble protein abundance (concentration: 2mM) | NP40-soluble protein abundance (concentration: 4mM) | NP40-soluble protein abundance (concentration: 6mM) | NP40-soluble protein abundance (concentration: 8mM) | NP40-soluble protein abundance (concentration: 10mM)
1 | E9PPG8 and related entries (UniProt Q53FT3) | 0.97 ± 0.019 | 0.951 ± 0.026 | 0.952 ± 0.016 | 0.973 ± 0.014 | 0.98 ± 0.024 | 0.9496 ± 0.0041
2 | F8W922 and related entries (UniProt Q9H7P6) | 1.01 ± 0.013 | 0.98 ± 0.022 | 0.989 ± 0.02 | 1.02 ± 0.032 | 1.02 ± 0.016 | 1.02 ± 0.013
3 | F5H070 and related entries (UniProt Q9Y4C1) | 1.02 ± 0.027 | 1.01 ± 0.012 | 1.03 ± 0.017 | 1.01 ± 0.033 | 0.991 ± 0.02 | 0.978 ± 0.013
4 | E7EMP6 and related entries (UniProt Q96FZ2) | 1.06 ± 0.015 | 1.01 ± 0.032 | 1.04 ± 0.021 | 0.9875 ± 0.0043 | 1.01 ± 0.016 | 1 ± 0.033
5 | F8VU11 and related entries (UniProt Q6NWY9) | 0.9863 ± 0.0038 | 1.02 ± 0.032 | 1.01 ± 0.053 | 1.01 ± 0.087 | 1.01 ± 0.072 | 1.02 ± 0.089
6 | F5H4V9 and related entries (UniProt Q16342) | 1.01 ± 0.013 | 1.04 ± 0.011 | 1.04 ± 0.057 | 1.06 ± 0.024 | 1.09 ± 0.036 | 1.084 ± 0.0096
7 | E9PKQ5 and related entries (UniProt Q9GZT6) | 1.02 ± 0.036 | 1.05 ± 0.029 | 1.01 ± 0.064 | 0.994 ± 0.035 | 0.933 ± 0.02 | 0.959 ± 0.037
8 | E7ETU5 and related entries (UniProt P29558) | 0.986 ± 0.045 | 1.02 ± 0.06 | 0.966 ± 0.068 | 0.933 ± 0.032 | 0.936 ± 0.053 | 0.948 ± 0.041
9 | F8W8G5 and related entries (UniProt P10242) | 1.05 ± 0.069 | 1.03 ± 0.11 | 1.02 ± 0.074 | 0.969 ± 0.02 | 0.994 ± 0.074 | 0.999 ± 0.062
10 | E9PJ04 and related entries (UniProt Q13435) | 1.03 ± 0.031 | 1.09 ± 0.062 | 1.046 ± 0.0081 | 1.09 ± 0.064 | 1.07 ± 0.048 | 1.14 ± 0.063
11 | E9PF19 and related entries (UniProt Q9Y4P3) | 1.02 ± 0.021 | 1.04 ± 0.017 | 1.12 ± 0.022 | 1.21 ± 0.055 | 1.25 ± 0.085 | 1.25 ± 0.07
12 | F5GZ97 and related entries (UniProt Q9Y3C0) | 0.9847 ± 0.0098 | 1.04 ± 0.033 | 1.02 ± 0.033 | 1.02 ± 0.029 | 1.04 ± 0.014 | 1.1 ± 0.089
13 | E9PJF5 and related entries (UniProt Q9HCU9) | 1.03 ± 0.018 | 1.05 ± 0.04 | 1.01 ± 0.012 | 1 ± 0.016 | 0.989 ± 0.041 | 1.02 ± 0.051
14 | F5GXX6 and related entries (UniProt Q9NQ89) | 0.976 ± 0.025 | 1 ± 0.041 | 0.982 ± 0.0099 | 0.976 ± 0.012 | 0.9379 ± 0.0013 | 0.937 ± 0.029
15 | E9PJD7 and related entries (UniProt P0DTL6) | 0.969 ± 0.023 | 0.968 ± 0.022 | 0.992 ± 0.015 | 1.01 ± 0.041 | 1.02 ± 0.028 | 0.981 ± 0.024
16 | F5GXX5 and related entries (UniProt P61803) | 0.905 ± 0.054 | 0.819 ± 0.048 | 0.914 ± 0.063 | 0.937 ± 0.085 | 0.998 ± 0.036 | 0.906 ± 0.074
17 | F5H365 and related entries (UniProt Q15436) | 0.991 ± 0.025 | 0.955 ± 0.061 | 0.989 ± 0.02 | 0.974 ± 0.021 | 0.987 ± 0.053 | 0.948 ± 0.027
18 | E7EW05 and related entries (UniProt Q9NVU7) | 0.965 ± 0.048 | 1.06 ± 0.14 | 1.03 ± 0.054 | 1.08 ± 0.066 | 1.08 ± 0.052 | 1.11 ± 0.056
19 | E5RK69 and related entries (UniProt P08133) | 0.976 ± 0.038 | 0.955 ± 0.015 | 0.947 ± 0.046 | 1.01 ± 0.06 | 1.01 ± 0.06 | 0.99 ± 0.039
20 | F5H1F7 and related entries (UniProt P29375) | 1.01 ± 0.011 | 1 ± 0.017 | 1.03 ± 0.023 | 1.04 ± 0.023 | 1.06 ± 0.042 | 1.08 ± 0.05
21 | F5GXJ1 and related entries (UniProt O75251) | 0.936 ± 0.064 | 0.848 ± 0.074 | 1.01 ± 0.088 | 1.02 ± 0.1 | 1.03 ± 0.14 | 1.01 ± 0.11
22 | F8VX10 and related entries (UniProt Q9H9L4) | 1.01 ± 0.014 | 1.06 ± 0.033 | 1.05 ± 0.033 | 1.02 ± 0.066 | 1.031 ± 0.0027 | 1.04 ± 0.044
23 | F2Z2X4 and related entries (UniProt Q9C0E2) | 0.952 ± 0.031 | 0.914 ± 0.033 | 0.962 ± 0.024 | 0.941 ± 0.05 | 0.936 ± 0.033 | 0.919 ± 0.056
24 | E7ES96 and related entries (UniProt P49768) | 0.9727 ± 0.0029 | 0.9587 ± 0.0011 | 0.961 ± 0.017 | 0.9741 ± 0.0013 | 0.967 ± 0.011 | 0.961 ± 0.016
25 | E7EN86 and related entries (UniProt P52747) | 0.99 ± 0.042 | 0.999 ± 0.043 | 0.994 ± 0.033 | 0.987 ± 0.031 | 1 ± 0.048 | 0.991 ± 0.045
26 | E9PQR9 and related entries (UniProt P57764) | 0.975 ± 0.031 | 0.924 ± 0.059 | 0.971 ± 0.047 | 0.933 ± 0.059 | 0.942 ± 0.022 | 0.897 ± 0.07
27 | G3V3H3 and related entries (UniProt Q07866) | 1.01 ± 0.023 | 1.04 ± 0.022 | 0.981 ± 0.013 | 0.985 ± 0.029 | 0.937 ± 0.03 | 0.974 ± 0.017
28 | E7EMD6 and related entries (UniProt O43572) | 1 ± 0.038 | 1.009 ± 0.0089 | 1.01 ± 0.033 | 0.979 ± 0.015 | 0.971 ± 0.025 | 0.962 ± 0.013
29 | F6VUX8 and related entries (UniProt Q9HC77) | 1 ± 0.012 | 1.02 ± 0.014 | 1.01 ± 0.027 | 1.02 ± 0.038 | 1.01 ± 0.051 | 1.02 ± 0.024
30 | E9PS74 and related entries (UniProt Q8NBI5) | 0.992 ± 0.056 | 1.01 ± 0.035 | 0.965 ± 0.04 | 0.985 ± 0.033 | 0.994 ± 0.046 | 0.983 ± 0.0088

Part of the list above, showing only NP40-soluble protein abundance (concentration: 6mM).
Row	Target	NP40-soluble protein abundance (concentration: 6mM)
24	E7ES96 and related entries (UniProt P49768)	0.9741 ± 0.0013
25	E7EN86 and related entries (UniProt P52747)	0.987 ± 0.031
